The text below walks through data of paper PMC11896342.

These are yes or no findings as the source states them, for the method shown. In cells and extracts the contact can be indirect. Binding calls can cover weak binding; strength is not graded here.

The target of the assay is NAD+-dependent deacetylase sirtuin 3 (mouse (endogenous in BMSCs)). The assay is described as follows: co-IP; proteins extracted from BMSCs, incubated overnight at 4°C with anti-Sirt3 antibody and Protein A + G agarose beads, washed three times, eluted; blotted with anti-YME1L1 (1:1000).

B1: YME1L1 (protein, UniProt O88967 1-715)
chain: MFSLSSTVQPQVTIPLSHLINAFHSPKNISVSVNTPVSQKQHRDTVPEHEAPSSEPVLNLRDLGLSELKIGQIDKMVENLLPGFYKDKRVSSCWHTSHISAQSFFENKYGHLDMFSTLRSSSLYRQHPKTLRSICSDLQYFPVFIQSRGFKTLKSRTRRLQSTSERLVEAQNIAPSFVKGFLLRDRGTDLESLDKLMKTKNIPEAHQDAFKTGFAEGFLKAQALTQKTNDSLRRTRLILFVLLLFGIYGLLKNPFLSVRFRTTTGLDSAVDPVQMKNVTFEHVKGVEEAKQELQEVVEFLKNPQKFTVLGGKLPKGILLVGPPGTGKTLLARAVAGEADVPFYYASGSEFDEMFVGVGASRIRNLFREAKANAPCVIFIDELDSVGGKRIESPMHPYSRQTINQLLAEMDGFKPNEGVIIIGATNFPEALDNALIRPGRFDMQVTVPRPDVKGRTEILKWYLNKIKFDKSVDPEIIARGTVGFSGAELENLVNQAALKAAVDGKEMVTMKELEFSKDKILMGPERRSVEIDNKNKTITAYHESGHAIIAYYTKDAMPINKATIMPRGPTLGHVSLLPENDRWNETRAQLLAQMDVSMGGRVAEELIFGTDHITTGASSDFDNATKIAKRMVTKFGMSEKLGVMTYSDTGKLSPETQSAIEQEIRILLRESYERAKHILKTHAKEHKNLAEALLTYETLDAKEIQIVLEGKKLEVR
Turning to B1, the binding result is on record as “binds”.
